Measurements from US20050043396A1, “5-Benzoylamino-1,3-dioxacyclanes, the method for preparing the same and their use as PKC inhibitor” (priority 2003, published 2005).
Some entries share one result that the patent states for a list of compounds. For at least one compound, name, drawing or mass did not settle the structure.

Test: Water-solubility of the cycloacetals (statement only)
Assay type: physicochemical

SMILES | water-solubility
COC(CC1OCC(NC(=O)c2ccccc2)C(C)O1)OC (stereo not shown) [Compound 9] | not satisfying
CCOC(CC1OCC(NC(=O)c2ccccc2)C(C)O1)OC (stereo not shown) [Compound 10] | not satisfying
CC1OC(CC2OCCO2)OCC1NC(=O)c1ccccc1 (stereo not shown) [Compound 12] | not satisfying
COC(CC1OCCC(NC(=O)c2ccccc2)CO1)OC (stereo not shown) [Compound 18] | not satisfying
